Results reported in the supplement of paper PMC10849652.
This is one part of the list.

Amino acid sequences for entries named in this document (tags omitted). A change or cut given only in a name is not applied to a line headed by its entry.
UniProt Q15853: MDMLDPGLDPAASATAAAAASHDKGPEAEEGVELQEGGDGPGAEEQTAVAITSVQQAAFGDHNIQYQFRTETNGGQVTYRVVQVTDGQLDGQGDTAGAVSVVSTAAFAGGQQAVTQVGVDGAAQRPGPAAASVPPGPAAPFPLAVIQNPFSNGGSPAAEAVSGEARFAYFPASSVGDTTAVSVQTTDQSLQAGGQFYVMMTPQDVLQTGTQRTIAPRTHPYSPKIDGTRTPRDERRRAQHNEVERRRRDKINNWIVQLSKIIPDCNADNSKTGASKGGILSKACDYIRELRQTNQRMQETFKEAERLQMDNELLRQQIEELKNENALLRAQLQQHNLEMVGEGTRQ
UniProt P22415: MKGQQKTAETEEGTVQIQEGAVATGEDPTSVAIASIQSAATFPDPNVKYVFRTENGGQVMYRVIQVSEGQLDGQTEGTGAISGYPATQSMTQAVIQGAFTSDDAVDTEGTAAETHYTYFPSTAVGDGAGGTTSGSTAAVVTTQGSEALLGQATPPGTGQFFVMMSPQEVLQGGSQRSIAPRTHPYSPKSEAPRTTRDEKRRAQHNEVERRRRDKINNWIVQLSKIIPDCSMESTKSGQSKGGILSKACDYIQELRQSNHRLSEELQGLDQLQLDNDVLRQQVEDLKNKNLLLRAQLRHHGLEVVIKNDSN
UniProt Q96RL1: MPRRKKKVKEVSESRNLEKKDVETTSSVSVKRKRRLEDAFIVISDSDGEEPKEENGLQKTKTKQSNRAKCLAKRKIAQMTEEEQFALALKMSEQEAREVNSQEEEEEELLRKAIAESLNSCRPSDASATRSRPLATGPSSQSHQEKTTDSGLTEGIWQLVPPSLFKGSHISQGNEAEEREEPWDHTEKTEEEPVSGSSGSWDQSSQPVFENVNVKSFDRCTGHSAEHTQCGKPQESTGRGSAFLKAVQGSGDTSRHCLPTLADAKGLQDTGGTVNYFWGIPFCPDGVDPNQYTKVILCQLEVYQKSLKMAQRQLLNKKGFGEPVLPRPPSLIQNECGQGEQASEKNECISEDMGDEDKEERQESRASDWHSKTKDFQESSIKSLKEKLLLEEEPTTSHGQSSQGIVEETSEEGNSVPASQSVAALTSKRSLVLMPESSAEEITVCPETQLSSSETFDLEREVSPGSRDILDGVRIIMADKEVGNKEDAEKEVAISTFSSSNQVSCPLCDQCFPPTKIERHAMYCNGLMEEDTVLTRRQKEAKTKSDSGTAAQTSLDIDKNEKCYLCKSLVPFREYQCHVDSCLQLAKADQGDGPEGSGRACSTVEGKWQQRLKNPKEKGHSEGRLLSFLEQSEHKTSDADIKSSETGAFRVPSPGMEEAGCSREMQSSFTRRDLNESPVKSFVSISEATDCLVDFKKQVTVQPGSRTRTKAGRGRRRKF
UniProt O60763: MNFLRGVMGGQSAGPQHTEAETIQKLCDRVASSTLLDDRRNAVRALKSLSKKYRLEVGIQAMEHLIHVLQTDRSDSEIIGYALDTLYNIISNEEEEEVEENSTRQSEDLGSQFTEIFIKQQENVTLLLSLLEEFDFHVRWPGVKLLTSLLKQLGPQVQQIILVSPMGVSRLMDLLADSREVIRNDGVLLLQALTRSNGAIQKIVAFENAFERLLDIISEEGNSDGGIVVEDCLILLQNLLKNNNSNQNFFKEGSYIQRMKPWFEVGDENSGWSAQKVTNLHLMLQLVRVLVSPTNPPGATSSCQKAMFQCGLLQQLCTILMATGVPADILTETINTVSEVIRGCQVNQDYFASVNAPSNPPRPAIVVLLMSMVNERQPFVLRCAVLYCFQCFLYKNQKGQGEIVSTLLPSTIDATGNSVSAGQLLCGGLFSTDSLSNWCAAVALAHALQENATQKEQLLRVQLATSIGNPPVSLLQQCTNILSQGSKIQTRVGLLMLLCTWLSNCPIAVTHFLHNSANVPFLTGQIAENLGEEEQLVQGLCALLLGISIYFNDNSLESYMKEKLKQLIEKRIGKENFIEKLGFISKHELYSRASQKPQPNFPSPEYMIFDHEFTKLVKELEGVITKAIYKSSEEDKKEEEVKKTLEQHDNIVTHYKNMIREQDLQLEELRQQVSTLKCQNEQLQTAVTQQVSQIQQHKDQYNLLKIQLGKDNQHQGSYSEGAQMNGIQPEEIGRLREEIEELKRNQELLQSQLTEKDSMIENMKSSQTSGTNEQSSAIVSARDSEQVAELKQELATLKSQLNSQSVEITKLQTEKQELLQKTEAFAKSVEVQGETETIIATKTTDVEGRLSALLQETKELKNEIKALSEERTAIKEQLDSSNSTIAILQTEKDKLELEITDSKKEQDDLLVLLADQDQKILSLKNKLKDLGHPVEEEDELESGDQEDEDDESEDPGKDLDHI
UniProt O75379: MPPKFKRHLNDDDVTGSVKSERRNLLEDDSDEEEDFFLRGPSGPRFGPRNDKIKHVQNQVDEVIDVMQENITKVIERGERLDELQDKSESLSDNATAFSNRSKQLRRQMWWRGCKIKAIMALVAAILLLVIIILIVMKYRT
UniProt O60701: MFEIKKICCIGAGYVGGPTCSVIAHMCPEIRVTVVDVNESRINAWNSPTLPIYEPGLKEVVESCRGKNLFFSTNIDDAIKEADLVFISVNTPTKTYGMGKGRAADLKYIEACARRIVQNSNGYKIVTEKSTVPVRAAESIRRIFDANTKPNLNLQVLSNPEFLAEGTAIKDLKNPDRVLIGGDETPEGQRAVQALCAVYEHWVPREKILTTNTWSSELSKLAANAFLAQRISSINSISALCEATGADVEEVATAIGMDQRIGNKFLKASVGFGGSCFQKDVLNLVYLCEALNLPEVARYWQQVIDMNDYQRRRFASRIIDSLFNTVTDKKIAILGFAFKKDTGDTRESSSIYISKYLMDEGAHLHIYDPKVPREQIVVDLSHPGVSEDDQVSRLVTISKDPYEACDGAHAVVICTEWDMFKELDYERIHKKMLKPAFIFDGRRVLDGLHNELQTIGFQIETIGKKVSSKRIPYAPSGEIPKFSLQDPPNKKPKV
UniProt P26640: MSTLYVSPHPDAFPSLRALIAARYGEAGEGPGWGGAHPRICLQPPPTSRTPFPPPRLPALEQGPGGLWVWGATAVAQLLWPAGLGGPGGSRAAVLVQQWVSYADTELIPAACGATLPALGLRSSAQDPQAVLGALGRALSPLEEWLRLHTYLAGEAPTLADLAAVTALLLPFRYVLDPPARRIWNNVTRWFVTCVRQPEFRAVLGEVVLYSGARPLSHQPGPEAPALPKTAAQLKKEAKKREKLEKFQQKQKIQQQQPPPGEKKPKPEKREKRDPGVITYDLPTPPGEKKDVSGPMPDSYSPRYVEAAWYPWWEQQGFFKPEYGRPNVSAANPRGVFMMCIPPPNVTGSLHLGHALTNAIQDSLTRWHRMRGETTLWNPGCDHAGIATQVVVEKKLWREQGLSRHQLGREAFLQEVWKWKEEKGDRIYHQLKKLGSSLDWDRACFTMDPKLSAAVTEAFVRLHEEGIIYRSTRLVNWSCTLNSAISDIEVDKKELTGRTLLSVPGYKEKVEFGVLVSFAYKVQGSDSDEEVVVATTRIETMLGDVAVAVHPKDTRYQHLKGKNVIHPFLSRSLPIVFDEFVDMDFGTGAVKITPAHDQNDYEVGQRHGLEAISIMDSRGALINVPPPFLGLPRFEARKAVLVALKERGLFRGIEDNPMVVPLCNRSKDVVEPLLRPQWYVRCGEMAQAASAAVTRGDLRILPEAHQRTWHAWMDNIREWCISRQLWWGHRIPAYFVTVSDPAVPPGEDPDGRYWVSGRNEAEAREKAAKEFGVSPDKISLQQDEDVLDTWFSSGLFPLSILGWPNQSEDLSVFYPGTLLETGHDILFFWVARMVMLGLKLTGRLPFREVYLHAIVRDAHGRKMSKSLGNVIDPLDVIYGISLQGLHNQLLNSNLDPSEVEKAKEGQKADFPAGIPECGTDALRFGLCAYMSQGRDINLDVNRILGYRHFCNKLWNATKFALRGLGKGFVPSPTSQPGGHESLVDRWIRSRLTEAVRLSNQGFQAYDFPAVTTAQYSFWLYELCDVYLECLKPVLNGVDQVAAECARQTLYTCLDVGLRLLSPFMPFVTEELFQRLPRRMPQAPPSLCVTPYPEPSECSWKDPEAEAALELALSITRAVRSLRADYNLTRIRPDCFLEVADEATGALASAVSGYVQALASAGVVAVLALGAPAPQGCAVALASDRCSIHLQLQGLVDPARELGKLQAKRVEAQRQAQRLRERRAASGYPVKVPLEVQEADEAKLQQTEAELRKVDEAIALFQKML
UniProt Q16880: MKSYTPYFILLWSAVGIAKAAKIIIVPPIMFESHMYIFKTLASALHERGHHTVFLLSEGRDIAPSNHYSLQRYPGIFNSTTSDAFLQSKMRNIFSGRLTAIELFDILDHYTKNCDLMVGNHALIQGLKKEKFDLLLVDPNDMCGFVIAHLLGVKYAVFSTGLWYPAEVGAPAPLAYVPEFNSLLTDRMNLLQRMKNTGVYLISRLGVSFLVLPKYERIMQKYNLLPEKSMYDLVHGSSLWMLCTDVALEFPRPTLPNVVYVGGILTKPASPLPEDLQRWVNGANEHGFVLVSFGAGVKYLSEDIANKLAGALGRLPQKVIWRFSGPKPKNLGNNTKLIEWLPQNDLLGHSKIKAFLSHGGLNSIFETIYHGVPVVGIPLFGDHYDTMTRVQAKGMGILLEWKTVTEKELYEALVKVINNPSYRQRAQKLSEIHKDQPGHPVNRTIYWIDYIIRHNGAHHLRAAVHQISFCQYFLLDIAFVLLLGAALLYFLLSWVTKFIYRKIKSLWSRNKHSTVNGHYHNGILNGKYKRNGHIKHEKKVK
UniProt O94874: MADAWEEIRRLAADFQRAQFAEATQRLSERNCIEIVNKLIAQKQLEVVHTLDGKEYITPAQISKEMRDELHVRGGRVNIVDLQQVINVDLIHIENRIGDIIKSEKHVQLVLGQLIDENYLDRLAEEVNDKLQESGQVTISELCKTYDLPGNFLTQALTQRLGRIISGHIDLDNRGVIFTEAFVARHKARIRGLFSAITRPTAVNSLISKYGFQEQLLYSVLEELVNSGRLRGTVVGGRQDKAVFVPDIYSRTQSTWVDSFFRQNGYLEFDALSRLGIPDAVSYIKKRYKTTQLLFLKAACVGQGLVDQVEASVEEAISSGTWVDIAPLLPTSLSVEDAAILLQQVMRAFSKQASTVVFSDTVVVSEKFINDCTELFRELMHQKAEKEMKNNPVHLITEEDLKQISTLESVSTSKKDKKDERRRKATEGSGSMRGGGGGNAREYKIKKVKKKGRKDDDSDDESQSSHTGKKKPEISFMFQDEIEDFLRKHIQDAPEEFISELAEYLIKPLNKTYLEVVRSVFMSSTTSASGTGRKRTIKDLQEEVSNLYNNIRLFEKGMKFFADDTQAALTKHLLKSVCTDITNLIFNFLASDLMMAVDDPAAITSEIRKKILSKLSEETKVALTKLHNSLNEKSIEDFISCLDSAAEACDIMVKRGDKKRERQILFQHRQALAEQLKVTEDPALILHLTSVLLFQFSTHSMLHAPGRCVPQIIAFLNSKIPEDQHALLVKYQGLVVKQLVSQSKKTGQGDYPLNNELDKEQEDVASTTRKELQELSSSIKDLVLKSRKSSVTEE
UniProt Q9H3U1: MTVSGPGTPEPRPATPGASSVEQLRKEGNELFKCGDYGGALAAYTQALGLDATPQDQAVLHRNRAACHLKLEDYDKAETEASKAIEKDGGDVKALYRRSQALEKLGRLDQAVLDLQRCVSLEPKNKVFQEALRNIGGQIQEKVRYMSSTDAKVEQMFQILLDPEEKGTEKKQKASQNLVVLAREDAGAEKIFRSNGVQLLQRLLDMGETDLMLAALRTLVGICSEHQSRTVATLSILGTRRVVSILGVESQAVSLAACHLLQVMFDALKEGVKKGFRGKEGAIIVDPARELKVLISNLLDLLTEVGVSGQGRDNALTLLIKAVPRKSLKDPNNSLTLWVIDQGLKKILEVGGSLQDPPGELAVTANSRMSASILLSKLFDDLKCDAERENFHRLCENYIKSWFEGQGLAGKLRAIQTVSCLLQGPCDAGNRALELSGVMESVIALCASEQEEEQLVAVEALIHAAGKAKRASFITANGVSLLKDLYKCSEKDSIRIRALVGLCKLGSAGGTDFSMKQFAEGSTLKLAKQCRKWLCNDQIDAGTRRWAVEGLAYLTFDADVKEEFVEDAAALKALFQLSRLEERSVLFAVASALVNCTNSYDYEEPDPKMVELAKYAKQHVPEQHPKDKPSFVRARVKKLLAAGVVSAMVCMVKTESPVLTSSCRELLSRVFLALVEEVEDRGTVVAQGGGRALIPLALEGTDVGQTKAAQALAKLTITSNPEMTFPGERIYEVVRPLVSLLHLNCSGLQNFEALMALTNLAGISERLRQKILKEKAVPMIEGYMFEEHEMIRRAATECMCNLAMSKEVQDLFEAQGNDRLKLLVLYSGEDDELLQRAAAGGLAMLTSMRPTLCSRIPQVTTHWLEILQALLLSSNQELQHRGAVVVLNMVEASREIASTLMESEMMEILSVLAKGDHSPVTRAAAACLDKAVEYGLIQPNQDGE

Assays:
Test in all cases: log2 fold change, soluble protein after heating vs DMSO (PISA); higher = thermal stabilisation; K562 lysate, 10 uM; active = over 0.2 and 3.5 SD of the protein, either way, in both replicates (recomputed)
[1] = compound: CCCS(=O)(=O)Nc1ccc(F)c(C(=O)c2c[nH]c3ncc(-c4ccc(Cl)cc4)cc23)c1F [vemurafenib]
Procedure, shortened: (§1)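 Following dounce homogenisation of K562 pellets in PBS pH 7.4 with 1 mM MgCl2, crude extract at 1 mg/mL protein was incubated for 30 min with 10 μM compound. Aliquots were then heated for 3 min over 48°C-58°C and pooled, NP-40 was added to 0.5% at 4°C, and soluble protein was recovered as the supernatant at 21,000xg for 90 min. Channel-sum-equalised TMTpro 16plex LC-MS/MS quantified this protein. Each value, from duplicates, is a log-two fold change in thermal stability relative to solvent controls.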

[2] = compound: CCCS(=O)(=O)Nc1ccc(F)c(C(=O)c2c[nH]c3ncc(Cl)cc23)c1F
Procedure, shortened: as §1

[3] = compound: CCN(CCCOc1ccc2c(Nc3cc(CC(=O)Nc4cccc(F)c4)[nH]n3)ncnc2c1)CCOP(=O)(O)O [barasertib]
Procedure, shortened: as §1

[4] = compound: CC[C@@H]1C(=O)N(C)c2cnc(Nc3ccc(C(=O)NC4CCN(C)CC4)cc3OC)nc2N1C1CCCC1
Procedure, shortened: as §1

[5] = compound: CC[C@@H]1C(=O)N(C)c2cnc(Nc3ccc(C(=O)N[C@H]4CC[C@H](N5CCN(CC6CC6)CC5)CC4)cc3OC)nc2N1C(C)C [volasertib]
Procedure, shortened: as §1

[6] = compound: CCn1c(C(=O)N(C2CC2)C2CC2)cc2c3c(ncn3C)c(Nc3cc(C)n(C)n3)nc21
Procedure, shortened: as §1

[7] = compound: CCn1cc(-c2ccnc3[nH]c(-c4cccc(CN(C)C)c4)cc23)c(-c2ccc(NC(=O)N(C)C)cc2)n1
Procedure, shortened: as §1

[8] = compound: CN1CCC(CNc2ccc3ncc(-c4cccc(OC(F)(F)F)c4)n3n2)CC1
Procedure, shortened: as §1

[9] = compound: CN1CCN(CCOc2cc(OC3CCOCC3)c3c(Nc4c(Cl)ccc5c4OCO5)ncnc3c2)CC1 [saracatinib]
Procedure, shortened: as §1

[10] = compound: CN1CCN(c2nc(C3=C(c4c[nH]c5ccccc45)C(=O)NC3=O)c3ccccc3n2)CC1 [sotrastaurin]
Procedure, shortened: as §1

[11] = compound: CN1CC[C@H](c2c(O)cc(O)c3c(=O)cc(-c4ccccc4Cl)oc23)[C@H](O)C1 [alvocidib]
Procedure, shortened: as §1

[12] = compound: CN1CCc2c(c3ccccc3n2Cc2ccc(C(=O)NO)cc2)C1 [Tubastatin A]
Procedure, shortened: as §1

[13] = compound: CNC(=O)C1=CC=CC=C1NC2=NC(=NC=C2Cl)NC3=C(C=C(C=C3)N4CCOCC4)OC
Procedure, shortened: as §1

[14] = compound: CNC(=O)c1ccc(Nc2ncc(C(F)(F)F)c(NCc3nccnc3N(C)S(C)(=O)=O)n2)cc1 [defactinib]
Procedure, shortened: as §1

[15] = compound: CNc1nc(-c2ccc3c(N)n[nH]c3c2)cc(N2C[C@@H](C(=O)NC3CCCCC3)CC[C@H]2C)n1
Procedure, shortened: as §1

[16] = compound: COC(=O)N[C@@H](C)CNc1nccc(-c2cn(C(C)C)nc2-c2cc(Cl)cc(NS(C)(=O)=O)c2F)n1 [encorafenib]
Procedure, shortened: as §1

[17] = compound: COC(=O)[C@H](CCSC)NC(=O)C1=C(C=C(C=C1)NC[C@H](CS)N)C2=CC=CC=C2
Procedure, shortened: as §1

[18] = compound: COc1cc(Nc2ncc3c(n2)-c2ccc(Cl)cc2C(c2c(F)cccc2OC)=NC3)ccc1C(=O)O [alisertib]
Procedure, shortened: as §1

[19] = compound: COc1cc2nc(-c3cc(F)ccc3O)nc(N[C@@H]3CNC[C@H]3C(C)(C)O)c2cc1OC
Procedure, shortened: as §1

[20] = compound: COc1cc2ncnc(Nc3ccc(F)c(Cl)c3)c2cc1OCCCN1CCOCC1 [gefitinib]
Procedure, shortened: as §1

Measured: log2 fold change

USP25 (UniProt Q9UHP3)
inactive: [1] -0.043 | [2] -0.012 | [3] 0.011 | [4] 0.025 | [5] -0.016 | [6] 0.03 | [7] 0.022 | [8] -0.021 | [9] 0.005 | [10] 0.024 | [11] 0.004 | [12] -0.031 | [13] -0.017 | [14] -0.018 | [15] -0.087 | [16] 0.012 | [17] 0.014 | [18] -0.006 | [19] 0.018 | [20] 0.002

USF2 (UniProt Q15853)
inactive: [1] -0.063 | [2] 0.018 | [3] 0.031 | [4] 0.118 | [5] -0.021 | [6] -0.005 | [7] 0.095 | [8] 0.002 | [9] -0.011 | [10] 0.05 | [11] -0.063 | [12] -0.026 | [13] 0.094 | [14] 0.052 | [15] 0.038 | [16] 0.049 | [17] 0.01 | [18] 0.045 | [19] 0.008 | [20] 0.021

USF1 (UniProt P22415)
inactive: [1] -0.075 | [2] 0.064 | [3] 0.042 | [4] 0.053 | [5] 0.074 | [6] 0.194 | [7] -0.029 | [8] 0.008 | [9] 0.014 | [10] 0.03 | [11] -0.062 | [12] 0.02 | [13] 0.13 | [14] 0.071 | [15] 0.054 | [16] 0.006 | [17] -0.002 | [18] -0.008 | [19] 0.071 | [20] 0.106

2 entries picked at random from those above, as already listed:
USF2 (UniProt Q15853)
inactive: [1] -0.063 | [2] 0.018 | [3] 0.031 | [4] 0.118 | [5] -0.021 | [6] -0.005 | [7] 0.095 | [8] 0.002 | [9] -0.011 | [10] 0.05 | [11] -0.063 | [12] -0.026 | [13] 0.094 | [14] 0.052 | [15] 0.038 | [16] 0.049 | [17] 0.01 | [18] 0.045 | [19] 0.008 | [20] 0.021

USF1 (UniProt P22415)
inactive: [1] -0.075 | [2] 0.064 | [3] 0.042 | [4] 0.053 | [5] 0.074 | [6] 0.194 | [7] -0.029 | [8] 0.008 | [9] 0.014 | [10] 0.03 | [11] -0.062 | [12] 0.02 | [13] 0.13 | [14] 0.071 | [15] 0.054 | [16] 0.006 | [17] -0.002 | [18] -0.008 | [19] 0.071 | [20] 0.106

Following part:

UIMC1 (UniProt Q96RL1)
inactive: [1] 0.027 | [2] 0.011 | [3] -0.049 | [4] 0.033 | [5] 0.047 | [6] 0.001 | [7] 0.144 | [8] -0.02 | [9] -0.003 | [10] 0.007 | [11] -0.032 | [12] -0.018 | [13] 0.005 | [14] -0.034 | [15] 0.007 | [16] 0.003 | [17] -0.046 | [18] 0.044 | [19] 0.053 | [20] 0.036

USO1 isoform 2 (UniProt O60763)
inactive: [1] -0.007 | [2] -0.017 | [3] -0.008 | [4] 0.018 | [5] 0.012 | [6] -0.011 | [7] 0.007 | [8] -0.007 | [9] -0.005 | [10] 0.018 | [11] -0.002 | [12] 0.038 | [13] 0 | [14] -0.007 | [15] -0.003 | [16] 0.008 | [17] -0.014 | [18] 0.004 | [19] 0.013 | [20] 0.011

VAMP4 (UniProt O75379)
inactive: [1] -0.026 | [2] 0.005 | [3] 0.052 | [4] 0.022 | [5] 0.004 | [6] 0.028 | [7] -0.031 | [8] 0.105 | [9] -0.004 | [10] -0.048 | [11] -0.023 | [12] 0.046 | [13] -0.07 | [14] 0.041 | [15] -0.115 | [16] 0.024 | [17] -0.073 | [18] 0.141 | [19] 0.052 | [20] 0.029

UGDH (UniProt O60701)
inactive: [1] 0.008 | [2] 0.017 | [3] -0.003 | [4] -0.062 | [5] -0.045 | [6] 0.011 | [7] -0.028 | [8] -0.021 | [9] 0.187 | [10] 0.003 | [11] 0.023 | [12] -0.151 | [13] 0.015 | [14] 0.071 | [15] -0.132 | [16] 0.047 | [17] 0.037 | [18] -0.025 | [19] -0.004 | [20] -0.042

UTP3 (UniProt Q9NQZ2)
inactive: [1] 0.004 | [2] 0.012 | [3] 0.058 | [4] -0.009 | [5] -0.011 | [6] -0.047 | [7] 0 | [8] -0.02 | [9] 0.011 | [10] 0.05 | [11] 0.04 | [12] -0.022 | [13] -0.047 | [14] 0.151 | [15] 0.089 | [16] 0.05 | [17] 0.005 | [18] -0.042 | [19] -0.002 | [20] -0.017

UGGT1 (UniProt Q9NYU2)
inactive: [1] 0.007 | [2] 0.006 | [3] -0.001 | [4] -0.011 | [5] 0.001 | [6] 0 | [7] -0.05 | [8] 0.012 | [9] 0.006 | [10] 0.006 | [11] -0.009 | [12] 0.018 | [13] 0.006 | [14] -0.005 | [15] -0.001 | [16] 0.009 | [17] -0.006 | [18] -0.001 | [19] 0.011 | [20] -0.01

VARS (UniProt P26640)
inactive: [1] 0.028 | [2] 0.007 | [3] 0.036 | [4] -0.077 | [5] -0.082 | [6] 0.04 | [7] -0.014 | [8] -0.039 | [9] -0.001 | [10] 0.03 | [11] -0.003 | [12] -0.086 | [13] 0.002 | [14] 0.025 | [15] -0.008 | [16] -0.008 | [17] 0.16 | [18] -0.02 | [19] 0.003 | [20] -0.006

USO1 (UniProt O60763)
inactive: [1] 0.119 | [2] 0.096 | [3] 0.003 | [4] 0.108 | [5] -0.019 | [6] -0.152 | [7] -0.052 | [8] 0.117 | [9] 0.023 | [10] -0.021 | [11] 0.019 | [12] 0.103 | [13] 0.087 | [14] -0.028 | [15] 0.203 | [16] -0.144 | [17] -0.125 | [18] 0.035 | [19] -0.095 | [20] -0.153

UGT8 (UniProt Q16880)
inactive: [1] -0.028 | [2] 0.093 | [3] 0.098 | [4] -0.07 | [5] 0.067 | [6] -0.066 | [7] 0.011 | [8] -0.03 | [9] 0.01 | [10] 0.013 | [11] -0.005 | [12] 0.015 | [13] 0.02 | [14] 0.177 | [15] -0.047 | [16] 0.044 | [17] 0.009 | [18] 0.064 | [19] 0.049 | [20] -0.029

UFL1 (UniProt O94874)
inactive: [1] -0.017 | [2] 0.009 | [3] 0.022 | [4] -0.001 | [5] -0.026 | [6] 0.032 | [7] -0.158 | [8] -0.017 | [9] 0.003 | [10] 0.012 | [11] 0.011 | [12] 0.025 | [13] -0.017 | [14] 0.023 | [15] -0.05 | [16] 0.023 | [17] 0.078 | [18] 0.005 | [19] 0.026 | [20] 0

UNC45A (UniProt Q9H3U1)
inactive: [1] 0.013 | [2] 0.012 | [3] 0.018 | [4] -0.022 | [5] -0.039 | [6] 0.025 | [7] 0.02 | [8] -0.081 | [9] 0.017 | [10] -0.001 | [11] -0.017 | [12] -0.146 | [13] 0 | [14] 0.018 | [15] -0.011 | [16] -0.003 | [17] 0.044 | [18] 0.006 | [19] 0.001 | [20] -0.02

VAV3 isoform 4 (UniProt Q9UKW4)
inactive: [1] 0.059 | [2] -0.004 | [3] 0.049 | [4] -0.001 | [5] -0.017 | [6] -0.291 | [7] -0.512 | [8] 0.177 | [9] -0.15 | [10] 0.001 | [11] -0.305 | [12] -0.202 | [13] 0.032 | [14] -0.295 | [15] 0.053 | [16] 0 | [17] 0.049 | [18] -0.004 | [19] 0.054 | [20] 0.036
